# In the supplement of paper PMC8728848:
# The list shows a part of the results.
# B1: BSR4 (Toxoplasma gondii), Q95NL6 (protein)
# chain: MVMMGSMQQRRGGLRSNARQLLAVCMSGVVFFSSGQAVADNLLEGLLHRTLQQQVEVTSRLTVAGSDAKCDFFTPATQDSPPVSGSLTLSKGRMTATFECSATQALSISTIPTNIEQNVCDPKKTTNGTVCQFGANGSAGTEVTLKDLLETDRIVNWKVNEQREESNKSQKWSLELHNEDLPLTDKAFVVGCQATSAARGTESGKTAACKLTVNVEARASSLAENNVVTCAYGKGSNPNPVEVEMSTEKNTLTINCGSDGSLQPTTYAEEYCVADSKDVNRCSTTRFVEIFPKFLKSWWVTETQKRTSATLTIPQTDLPEADQQFLVGCVPKKTAPEDPKKDKESGTETGAPTSCTVLVTVKAASSASHASPTVQILAAASSAAA
# Tests used:
# Test in all cases: glycan array binding signal (z-score within array); higher = stronger binding
# Settings in all cases: glycan notation: IUPAC condensed, linker removed
# [1] = biological target: Gal(b1-4)GlcNAc(b1-2)Man(a1-6)[GlcNAc(b1-2)Man(a1-3)]Man(b1-4)GlcNAc(b1-4)GlcNAc
# Summary of the method: (§1)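 The binding signal is a Z-score computed within each array. Data were drawn from 3228 arrays in the Consortium for Functional Glycomics database, restricted to those with a known protein sequence. Scores were averaged over arrays of the same protein sequence at different concentrations or buffers, and over linkers, and negative values can be taken as non-binding.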
# [2] = biological target: Gal(b1-4)GlcNAc(b1-2)Man(a1-6)[Man(a1-3)]Man(b1-4)GlcNAc(b1-4)GlcNAc
# Summary of the method: as §1
# [3] = biological target: Gal(b1-4)GlcNAc(b1-2)[Gal(b1-4)GlcNAc(b1-4)]Man(a1-3)[Gal(b1-4)GlcNAc(b1-2)Man(a1-6)]Man(b1-4)GlcNAc(b1-4)GlcNAc
# Summary of the method: as §1
# [4] = biological target: Gal(b1-4)GlcNAc(b1-2)[Gal(b1-4)GlcNAc(b1-4)]Man(a1-3)[Gal(b1-4)GlcNAc(b1-2)[Gal(b1-4)GlcNAc(b1-6)]Man(a1-6)]Man(b1-4)GlcNAc(b1-4)GlcNAc
# Summary of the method: as §1
# [5] = biological target: Gal(b1-4)GlcNAc(b1-3)Gal(b1-3)GlcNAc
# Summary of the method: as §1
# [6] = biological target: Gal(b1-4)GlcNAc(b1-3)Gal(b1-4)Glc
# Summary of the method: as §1
# [7] = biological target: Gal(b1-4)GlcNAc(b1-3)Gal(b1-4)GlcNAc
# Summary of the method: as §1
# [8] = biological target: Gal(b1-4)GlcNAc(b1-3)Gal(b1-4)GlcNAc(b1-3)Gal(b1-4)GlcNAc
# Summary of the method: as §1
# [9] = biological target: Gal(b1-4)GlcNAc(b1-3)Gal(b1-4)[Fuc(a1-3)]GlcNAc(b1-3)Gal(b1-4)[Fuc(a1-3)]GlcNAc
# Summary of the method: as §1
# [10] = biological target: Gal(b1-4)GlcNAc(b1-3)GalNAc
# Summary of the method: as §1
# [11] = biological target: Gal(b1-4)GlcNAc(b1-3)[Gal(b1-4)GlcNAc(b1-6)]Gal(b1-4)GlcNAc
# Summary of the method: as §1
# [12] = biological target: Gal(b1-4)GlcNAc(b1-3)[Gal(b1-4)GlcNAc(b1-6)]GalNAc
# Summary of the method: as §1
# [13] = biological target: Gal(b1-4)GlcNAc(b1-3)[GlcNAc(b1-6)]Gal(b1-4)GlcNAc
# Summary of the method: as §1
# [14] = biological target: Gal(b1-4)GlcNAc(b1-6)Gal(b1-4)GlcNAc
# Summary of the method: as §1
# [15] = biological target: Gal(b1-4)GlcNAc(b1-6)GalNAc
# Summary of the method: as §1
# [16] = biological target: Gal(b1-4)GlcNAc(b1-6)[Gal(b1-3)]GalNAc
# Summary of the method: as §1
# Gal3S(b1-3)GalNAc = biological target: Gal3S(b1-3)GalNAc
# Summary of the method: as §1
# Gal3S(b1-3)GlcNAc = biological target: Gal3S(b1-3)GlcNAc
# Summary of the method: as §1
# [17] = biological target: Gal3S(b1-3)[Fuc(a1-4)]GlcNAc
# Summary of the method: as §1
# Gal3S(b1-4)Glc = biological target: Gal3S(b1-4)Glc
# Summary of the method: as §1
# Gal3S(b1-4)Glc6S = biological target: Gal3S(b1-4)Glc6S
# Summary of the method: as §1
# Gal3S(b1-4)GlcNAc = biological target: Gal3S(b1-4)GlcNAc
# Summary of the method: as §1
# Gal3S(b1-4)GlcNAc6S = biological target: Gal3S(b1-4)GlcNAc6S
# Summary of the method: as §1
# [18] = biological target: Gal3S(b1-4)[Fuc(a1-3)]Glc
# Summary of the method: as §1
# [19] = biological target: Gal3S(b1-4)[Fuc(a1-3)]Glc6S
# Summary of the method: as §1
# Gal3S4S(b1-4)GlcNAc = biological target: Gal3S4S(b1-4)GlcNAc
# Summary of the method: as §1
# Gal3S6S(b1-4)GlcNAc = biological target: Gal3S6S(b1-4)GlcNAc
# Summary of the method: as §1
# Gal3S6S(b1-4)GlcNAc6S = biological target: Gal3S6S(b1-4)GlcNAc6S
# Summary of the method: as §1
# Gal4S(b1-4)GlcNAc = biological target: Gal4S(b1-4)GlcNAc
# Summary of the method: as §1
# Gal4S6S(b1-4)GlcNAc = biological target: Gal4S6S(b1-4)GlcNAc
# Summary of the method: as §1
# Gal6S(b1-4)Glc = biological target: Gal6S(b1-4)Glc
# Summary of the method: as §1
# Gal6S(b1-4)Glc6S = biological target: Gal6S(b1-4)Glc6S
# Summary of the method: as §1
# Gal6S(b1-4)GlcNAc = biological target: Gal6S(b1-4)GlcNAc
# Summary of the method: as §1
# Gal6S(b1-4)GlcNAc6S = biological target: Gal6S(b1-4)GlcNAc6S
# Summary of the method: as §1
# GalNAc(a1-3)Gal = biological target: GalNAc(a1-3)Gal
# Summary of the method: as §1
# GalNAc(a1-3)GalNAc = biological target: GalNAc(a1-3)GalNAc
# Summary of the method: as §1
# [20] = biological target: GalNAc(a1-3)GalNAc(a1-3)Gal(a1-4)Gal(b1-4)GlcNAc
# Summary of the method: as §1
# GalNAc(b1-3)Gal = biological target: GalNAc(b1-3)Gal
# Summary of the method: as §1
binder,measurement,setting,value
B1,glycan array binding signal (z-score),[1],-0.121
same,glycan array binding signal (z-score),[2],-0.142
same,glycan array binding signal (z-score),[3],-0.451
same,glycan array binding signal (z-score),[4],-0.468
same,glycan array binding signal (z-score),[5],0.288
same,glycan array binding signal (z-score),[6],-0.295
same,glycan array binding signal (z-score),[7],-0.243
same,glycan array binding signal (z-score),[8],-0.265
same,glycan array binding signal (z-score),[9],-0.462
same,glycan array binding signal (z-score),[10],0.454
same,glycan array binding signal (z-score),[11],-0.712
same,glycan array binding signal (z-score),[12],-0.178
same,glycan array binding signal (z-score),[13],0.261
same,glycan array binding signal (z-score),[14],-0.306
same,glycan array binding signal (z-score),[15],0.205
same,glycan array binding signal (z-score),[16],-0.415
same,glycan array binding signal (z-score),Gal3S(b1-3)GalNAc,-0.111
same,glycan array binding signal (z-score),Gal3S(b1-3)GlcNAc,-0.131
same,glycan array binding signal (z-score),[17],5.04
same,glycan array binding signal (z-score),Gal3S(b1-4)Glc,-0.469
same,glycan array binding signal (z-score),Gal3S(b1-4)Glc6S,-0.039
same,glycan array binding signal (z-score),Gal3S(b1-4)GlcNAc,-0.116
same,glycan array binding signal (z-score),Gal3S(b1-4)GlcNAc6S,0.22
same,glycan array binding signal (z-score),[18],0.054
same,glycan array binding signal (z-score),[19],0.993
same,glycan array binding signal (z-score),Gal3S4S(b1-4)GlcNAc,-0.074
same,glycan array binding signal (z-score),Gal3S6S(b1-4)GlcNAc,0.975
same,glycan array binding signal (z-score),Gal3S6S(b1-4)GlcNAc6S,0.358
same,glycan array binding signal (z-score),Gal4S(b1-4)GlcNAc,-0.451
same,glycan array binding signal (z-score),Gal4S6S(b1-4)GlcNAc,0.705
same,glycan array binding signal (z-score),Gal6S(b1-4)Glc,0.335
same,glycan array binding signal (z-score),Gal6S(b1-4)Glc6S,0.41
same,glycan array binding signal (z-score),Gal6S(b1-4)GlcNAc,0.345
same,glycan array binding signal (z-score),Gal6S(b1-4)GlcNAc6S,0.245
same,glycan array binding signal (z-score),GalNAc(a1-3)Gal,-0.538
same,glycan array binding signal (z-score),GalNAc(a1-3)GalNAc,0.038
same,glycan array binding signal (z-score),[20],-0.674
same,glycan array binding signal (z-score),GalNAc(b1-3)Gal,-0.368

# Laid out differently: entries from further up
binder | measurement | setting | value
B1 | glycan array binding signal (z-score) | [2] | -0.142
same | glycan array binding signal (z-score) | [3] | -0.451
same | glycan array binding signal (z-score) | [4] | -0.468
